Compound in this assay: Nc1ncnc2c1ncn2[C@@H]1O[C@H](COP(=O)(O)OP(=O)(O)NP(=O)(O)O)[C@@H](O)[C@H]1O [adenylyl imidodiphosphate]
The assay can be described thus: NP40-soluble protein abundance relative to vehicle (solubility fold change) (ratio); higher = more soluble protein in presence of AMP-PNP. In outline:
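In three independent experiments, Jurkat crude lysate made by Dounce homogenisation was treated for 10 min at room temperature and then 3 min at 37 °C with eight concentrations ranging from 0.1 to 10 mM. It was then solubilised with 0.8% NP40 plus benzonase for 60 min at 4 °C and ultracentrifuged. The supernatant was TMT-labelled for LC-MS/MS, and each value is the fold change against the detergent-processed vehicle for the same replicate, using vsn-normalised intensities.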

Chains of the proteins cited; added tags and fusions are not shown. Lines headed by an entry give the natural chain unless they say otherwise; changes in a name come on top.
UniProt P35998: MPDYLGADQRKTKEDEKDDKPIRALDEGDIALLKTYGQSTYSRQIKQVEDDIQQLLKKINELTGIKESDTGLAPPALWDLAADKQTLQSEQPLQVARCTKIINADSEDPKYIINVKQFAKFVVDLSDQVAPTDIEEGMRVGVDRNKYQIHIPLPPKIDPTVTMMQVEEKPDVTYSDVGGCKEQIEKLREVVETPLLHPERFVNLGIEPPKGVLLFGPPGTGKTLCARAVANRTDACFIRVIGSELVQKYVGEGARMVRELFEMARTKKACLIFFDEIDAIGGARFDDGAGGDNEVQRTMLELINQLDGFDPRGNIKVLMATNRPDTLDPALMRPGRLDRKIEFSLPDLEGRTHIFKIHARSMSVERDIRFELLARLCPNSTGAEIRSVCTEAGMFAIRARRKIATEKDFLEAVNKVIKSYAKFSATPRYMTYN
UniProt P31040: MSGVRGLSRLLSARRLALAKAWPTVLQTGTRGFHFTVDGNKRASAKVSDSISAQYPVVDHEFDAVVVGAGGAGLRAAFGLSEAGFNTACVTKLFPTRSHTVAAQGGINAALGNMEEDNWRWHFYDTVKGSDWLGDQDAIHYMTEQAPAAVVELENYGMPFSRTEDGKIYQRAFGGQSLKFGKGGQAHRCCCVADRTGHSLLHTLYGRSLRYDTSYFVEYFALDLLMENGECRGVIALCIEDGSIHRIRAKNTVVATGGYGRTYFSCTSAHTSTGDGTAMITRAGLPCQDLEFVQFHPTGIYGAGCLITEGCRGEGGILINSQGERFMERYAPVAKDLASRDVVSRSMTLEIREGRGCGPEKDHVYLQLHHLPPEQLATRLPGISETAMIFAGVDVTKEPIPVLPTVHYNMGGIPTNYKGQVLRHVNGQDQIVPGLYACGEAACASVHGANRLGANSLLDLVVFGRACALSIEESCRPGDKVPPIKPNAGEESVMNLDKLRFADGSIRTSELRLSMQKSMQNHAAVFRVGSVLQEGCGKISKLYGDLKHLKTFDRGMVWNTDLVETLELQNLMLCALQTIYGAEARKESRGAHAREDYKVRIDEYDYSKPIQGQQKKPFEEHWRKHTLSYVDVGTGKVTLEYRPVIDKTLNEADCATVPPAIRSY
UniProt P23610: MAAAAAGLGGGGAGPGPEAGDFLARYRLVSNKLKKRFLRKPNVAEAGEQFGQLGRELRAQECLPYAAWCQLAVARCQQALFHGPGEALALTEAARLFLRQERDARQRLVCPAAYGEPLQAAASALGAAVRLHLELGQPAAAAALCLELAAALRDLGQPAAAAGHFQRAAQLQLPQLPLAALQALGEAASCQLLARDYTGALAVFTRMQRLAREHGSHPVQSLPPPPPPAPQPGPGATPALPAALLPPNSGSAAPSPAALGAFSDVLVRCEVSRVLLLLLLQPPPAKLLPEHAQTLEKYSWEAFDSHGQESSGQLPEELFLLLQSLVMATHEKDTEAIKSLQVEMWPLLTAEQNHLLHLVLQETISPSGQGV
UniProt P39687: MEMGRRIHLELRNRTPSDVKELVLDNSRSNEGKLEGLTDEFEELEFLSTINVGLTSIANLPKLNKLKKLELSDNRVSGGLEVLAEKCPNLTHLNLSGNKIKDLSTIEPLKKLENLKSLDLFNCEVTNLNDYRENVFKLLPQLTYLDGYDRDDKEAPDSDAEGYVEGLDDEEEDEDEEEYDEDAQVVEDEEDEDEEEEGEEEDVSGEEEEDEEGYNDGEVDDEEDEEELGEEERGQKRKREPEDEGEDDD
UniProt P25445, whole entry: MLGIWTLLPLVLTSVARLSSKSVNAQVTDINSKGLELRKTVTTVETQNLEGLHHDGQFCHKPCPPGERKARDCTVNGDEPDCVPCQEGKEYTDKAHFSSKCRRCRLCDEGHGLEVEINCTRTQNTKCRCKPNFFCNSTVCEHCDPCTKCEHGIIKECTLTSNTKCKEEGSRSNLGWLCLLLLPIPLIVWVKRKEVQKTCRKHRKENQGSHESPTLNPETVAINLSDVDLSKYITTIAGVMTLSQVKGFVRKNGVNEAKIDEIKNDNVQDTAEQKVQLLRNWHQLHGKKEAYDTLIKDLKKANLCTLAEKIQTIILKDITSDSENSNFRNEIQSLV
UniProt P23469: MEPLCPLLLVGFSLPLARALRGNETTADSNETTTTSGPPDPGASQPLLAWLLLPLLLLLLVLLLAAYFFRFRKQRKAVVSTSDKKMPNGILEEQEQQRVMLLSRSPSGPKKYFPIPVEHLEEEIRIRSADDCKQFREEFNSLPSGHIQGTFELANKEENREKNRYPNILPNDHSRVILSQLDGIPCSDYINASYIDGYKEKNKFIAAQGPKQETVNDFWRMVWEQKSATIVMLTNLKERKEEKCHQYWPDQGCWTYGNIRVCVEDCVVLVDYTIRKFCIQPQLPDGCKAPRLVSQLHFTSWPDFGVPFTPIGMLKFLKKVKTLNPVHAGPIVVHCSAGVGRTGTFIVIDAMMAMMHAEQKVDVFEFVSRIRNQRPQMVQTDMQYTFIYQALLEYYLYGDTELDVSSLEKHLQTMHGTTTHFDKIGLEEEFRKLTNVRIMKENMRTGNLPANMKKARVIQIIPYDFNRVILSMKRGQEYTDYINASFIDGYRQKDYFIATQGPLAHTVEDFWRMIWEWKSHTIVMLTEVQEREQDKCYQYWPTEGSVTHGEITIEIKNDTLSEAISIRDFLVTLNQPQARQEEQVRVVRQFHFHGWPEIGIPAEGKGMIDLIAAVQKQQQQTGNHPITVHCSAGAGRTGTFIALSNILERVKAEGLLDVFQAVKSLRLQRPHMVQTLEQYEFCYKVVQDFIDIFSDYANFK
UniProt P31751: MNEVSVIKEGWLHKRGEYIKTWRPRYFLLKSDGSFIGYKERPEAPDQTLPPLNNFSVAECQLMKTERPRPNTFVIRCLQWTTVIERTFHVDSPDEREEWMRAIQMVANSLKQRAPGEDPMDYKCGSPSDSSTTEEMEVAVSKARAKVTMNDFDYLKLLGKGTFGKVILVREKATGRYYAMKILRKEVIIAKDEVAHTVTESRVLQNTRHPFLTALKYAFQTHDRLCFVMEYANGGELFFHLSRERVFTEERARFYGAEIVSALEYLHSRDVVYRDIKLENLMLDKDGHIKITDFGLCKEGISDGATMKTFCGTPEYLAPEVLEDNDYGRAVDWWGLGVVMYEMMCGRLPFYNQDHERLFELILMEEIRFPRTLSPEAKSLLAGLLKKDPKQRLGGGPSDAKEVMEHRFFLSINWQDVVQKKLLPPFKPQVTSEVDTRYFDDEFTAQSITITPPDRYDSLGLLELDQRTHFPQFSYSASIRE
UniProt P32189: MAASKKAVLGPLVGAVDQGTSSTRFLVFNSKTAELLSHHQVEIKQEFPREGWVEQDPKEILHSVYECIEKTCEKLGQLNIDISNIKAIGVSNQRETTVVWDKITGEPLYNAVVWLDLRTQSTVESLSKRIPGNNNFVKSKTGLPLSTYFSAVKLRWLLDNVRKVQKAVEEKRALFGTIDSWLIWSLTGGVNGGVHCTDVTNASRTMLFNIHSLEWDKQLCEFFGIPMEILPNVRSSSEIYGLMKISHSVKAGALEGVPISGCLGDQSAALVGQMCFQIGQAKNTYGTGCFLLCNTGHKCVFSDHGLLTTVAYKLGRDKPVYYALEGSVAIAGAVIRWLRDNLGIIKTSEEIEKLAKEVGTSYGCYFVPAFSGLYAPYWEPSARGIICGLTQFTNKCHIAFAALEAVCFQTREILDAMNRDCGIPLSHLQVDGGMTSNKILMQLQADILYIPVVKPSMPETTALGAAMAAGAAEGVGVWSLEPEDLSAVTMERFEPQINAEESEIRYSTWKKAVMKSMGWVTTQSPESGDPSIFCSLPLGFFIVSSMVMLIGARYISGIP
UniProt P19440: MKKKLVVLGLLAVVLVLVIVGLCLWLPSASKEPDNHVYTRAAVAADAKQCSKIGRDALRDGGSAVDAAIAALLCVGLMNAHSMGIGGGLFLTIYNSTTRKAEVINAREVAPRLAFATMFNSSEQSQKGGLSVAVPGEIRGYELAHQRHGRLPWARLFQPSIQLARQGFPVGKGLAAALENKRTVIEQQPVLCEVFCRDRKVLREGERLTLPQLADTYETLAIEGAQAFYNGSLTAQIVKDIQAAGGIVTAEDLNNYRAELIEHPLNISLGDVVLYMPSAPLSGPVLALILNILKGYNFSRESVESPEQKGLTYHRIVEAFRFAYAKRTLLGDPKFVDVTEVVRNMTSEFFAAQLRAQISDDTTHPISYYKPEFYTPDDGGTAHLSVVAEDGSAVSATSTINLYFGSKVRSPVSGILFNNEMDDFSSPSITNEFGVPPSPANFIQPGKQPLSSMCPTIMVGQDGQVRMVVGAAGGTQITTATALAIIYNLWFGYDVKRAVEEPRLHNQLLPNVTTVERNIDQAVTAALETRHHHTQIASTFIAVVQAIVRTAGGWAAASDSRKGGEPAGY
UniProt P36405: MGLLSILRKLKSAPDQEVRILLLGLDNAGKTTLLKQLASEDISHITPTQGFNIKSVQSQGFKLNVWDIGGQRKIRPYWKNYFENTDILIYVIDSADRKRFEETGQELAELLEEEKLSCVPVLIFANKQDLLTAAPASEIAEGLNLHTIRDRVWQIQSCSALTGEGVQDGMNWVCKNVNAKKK
UniProt P28288: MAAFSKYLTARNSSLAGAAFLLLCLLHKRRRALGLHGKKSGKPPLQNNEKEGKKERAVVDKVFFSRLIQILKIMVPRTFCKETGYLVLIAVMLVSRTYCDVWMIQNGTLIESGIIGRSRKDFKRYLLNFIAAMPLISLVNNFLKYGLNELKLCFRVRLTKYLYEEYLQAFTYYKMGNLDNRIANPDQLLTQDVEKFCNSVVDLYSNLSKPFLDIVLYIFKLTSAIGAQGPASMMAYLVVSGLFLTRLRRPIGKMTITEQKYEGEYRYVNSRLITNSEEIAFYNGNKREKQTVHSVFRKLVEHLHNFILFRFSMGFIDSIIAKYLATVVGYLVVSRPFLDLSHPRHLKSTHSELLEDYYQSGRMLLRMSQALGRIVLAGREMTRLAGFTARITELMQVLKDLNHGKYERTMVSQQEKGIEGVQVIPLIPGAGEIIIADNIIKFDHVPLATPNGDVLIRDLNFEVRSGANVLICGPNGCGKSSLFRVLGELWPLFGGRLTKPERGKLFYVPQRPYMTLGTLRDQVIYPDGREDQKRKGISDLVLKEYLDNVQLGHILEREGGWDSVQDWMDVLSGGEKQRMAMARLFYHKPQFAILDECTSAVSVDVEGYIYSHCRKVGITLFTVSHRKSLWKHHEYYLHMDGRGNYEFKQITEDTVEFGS
UniProt P33897: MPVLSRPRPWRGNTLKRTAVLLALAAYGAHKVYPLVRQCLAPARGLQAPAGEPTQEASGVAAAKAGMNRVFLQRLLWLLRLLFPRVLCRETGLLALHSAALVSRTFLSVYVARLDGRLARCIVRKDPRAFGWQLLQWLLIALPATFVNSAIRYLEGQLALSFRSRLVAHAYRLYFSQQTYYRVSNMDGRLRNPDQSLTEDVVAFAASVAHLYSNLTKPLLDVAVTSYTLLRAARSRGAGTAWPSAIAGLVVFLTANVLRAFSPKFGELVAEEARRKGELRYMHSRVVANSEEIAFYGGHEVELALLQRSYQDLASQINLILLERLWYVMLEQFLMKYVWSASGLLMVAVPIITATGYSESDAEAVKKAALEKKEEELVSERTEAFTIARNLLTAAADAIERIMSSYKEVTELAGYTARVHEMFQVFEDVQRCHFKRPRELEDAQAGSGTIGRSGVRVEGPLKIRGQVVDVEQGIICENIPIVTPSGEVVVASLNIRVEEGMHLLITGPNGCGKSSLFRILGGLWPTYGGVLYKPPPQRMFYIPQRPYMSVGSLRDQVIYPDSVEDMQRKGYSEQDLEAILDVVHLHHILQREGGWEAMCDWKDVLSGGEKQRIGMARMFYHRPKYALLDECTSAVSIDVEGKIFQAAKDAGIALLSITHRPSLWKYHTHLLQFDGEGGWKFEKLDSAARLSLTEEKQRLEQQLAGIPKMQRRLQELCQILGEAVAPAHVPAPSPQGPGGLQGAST
UniProt P22087: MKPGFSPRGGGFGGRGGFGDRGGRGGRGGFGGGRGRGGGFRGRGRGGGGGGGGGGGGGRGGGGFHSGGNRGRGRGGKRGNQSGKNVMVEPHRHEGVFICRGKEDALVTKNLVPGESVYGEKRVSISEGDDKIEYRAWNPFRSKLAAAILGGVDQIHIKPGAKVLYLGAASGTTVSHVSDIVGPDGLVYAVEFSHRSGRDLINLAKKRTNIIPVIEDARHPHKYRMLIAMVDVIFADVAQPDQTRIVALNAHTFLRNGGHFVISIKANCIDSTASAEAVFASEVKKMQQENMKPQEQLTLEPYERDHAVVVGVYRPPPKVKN

Consider 15 targets from the supplement of paper PMC6411743.

± gives the standard deviation of the averaged measurements. This is a selection; strong and weak results do not stand in their true shares.

In the case of PSMC2 (UniProt P35998), the NP40-soluble protein abundance stood at 0.942 ± 0.053 (concentration: 1mM); 0.927 ± 0.05 (concentration: 2mM); 0.907 ± 0.086 (concentration: 4mM); 0.919 ± 0.084 (concentration: 6mM); 0.908 ± 0.072 (concentration: 8mM); 0.928 ± 0.12 (concentration: 10mM).
Regarding SDHA (UniProt P31040), the NP40-soluble protein abundance by setting is: (concentration: 1mM) 0.9896 ± 0.0076; (concentration: 2mM) 0.955 ± 0.014; (concentration: 4mM) 0.967 ± 0.013; (concentration: 6mM) 0.946 ± 0.0098; (concentration: 8mM) 0.959 ± 0.027; (concentration: 10mM) 0.922 ± 0.016.
For the target RDX (UniProt P35241), the NP40-soluble protein abundance amounted to 1.06 ± 0.045 (concentration: 1mM); 1.08 ± 0.024 (concentration: 2mM); 1.01 ± 0.032 (concentration: 4mM); 1.01 ± 0.064 (concentration: 6mM); 0.968 ± 0.044 (concentration: 8mM); 1 ± 0.056 (concentration: 10mM).
As for UniProt P23610, the NP40-soluble protein abundance (concentration: 1mM) was 1.02 ± 0.056; the NP40-soluble protein abundance (concentration: 2mM) came out at 0.963 ± 0.03; the NP40-soluble protein abundance (concentration: 4mM) came to 1.01 ± 0.058; the NP40-soluble protein abundance (concentration: 6mM) came to 0.937 ± 0.04; the NP40-soluble protein abundance (concentration: 8mM) was 0.998 ± 0.048; the NP40-soluble protein abundance (concentration: 10mM) turned out to be 0.917 ± 0.054.
Regarding UniProt P39687 and related entries, the NP40-soluble protein abundance is, setting by setting: (concentration: 1mM) 0.98 ± 0.065; (concentration: 2mM) 1.03 ± 0.081; (concentration: 4mM) 0.985 ± 0.11; (concentration: 6mM) 0.927 ± 0.048; (concentration: 8mM) 0.896 ± 0.06; (concentration: 10mM) 0.873 ± 0.034.
Consider UniProt P25445 and related entries, for which the NP40-soluble protein abundance by setting is: (concentration: 1mM) 0.97 ± 0.01; (concentration: 2mM) 1.09 ± 0.11; (concentration: 4mM) 0.984 ± 0.033; (concentration: 6mM) 1.04 ± 0.038; (concentration: 8mM) 0.999 ± 0.014; (concentration: 10mM) 1.05 ± 0.029.
On to UniProt P23469 and related entries, for which the NP40-soluble protein abundance (concentration: 1mM) came to 0.975 ± 0.031; the NP40-soluble protein abundance (concentration: 2mM) was found to be 0.942 ± 0.042; the NP40-soluble protein abundance (concentration: 4mM) stood at 0.939 ± 0.029; the NP40-soluble protein abundance (concentration: 6mM) was found to be 0.941 ± 0.01; the NP40-soluble protein abundance (concentration: 8mM) came to 0.966 ± 0.024; the NP40-soluble protein abundance (concentration: 10mM) stood at 0.907 ± 0.014.
Regarding AKT2 (UniProt P31751), the NP40-soluble protein abundance (concentration: 1mM) turned out to be 0.974 ± 0.025; the NP40-soluble protein abundance (concentration: 2mM) was found to be 0.95 ± 0.043; the NP40-soluble protein abundance (concentration: 4mM) was 0.969 ± 0.034; the NP40-soluble protein abundance (concentration: 6mM) is 0.947 ± 0.031; the NP40-soluble protein abundance (concentration: 8mM) was determined as 0.969 ± 0.017; the NP40-soluble protein abundance (concentration: 10mM) is 0.96 ± 0.044.
As to UniProt P32189 and related entries, the NP40-soluble protein abundance runs as follows: (concentration: 1mM) 0.995 ± 0.015; (concentration: 2mM) 0.988 ± 0.019; (concentration: 4mM) 0.993 ± 0.02; (concentration: 6mM) 0.998 ± 0.039; (concentration: 8mM) 1 ± 0.018; (concentration: 10mM) 0.984 ± 0.043.
For the target GGT1 (UniProt P19440), the NP40-soluble protein abundance came out at 0.988 ± 0.012 (concentration: 1mM); 0.995 ± 0.03 (concentration: 2mM); 1.01 ± 0.036 (concentration: 4mM); 0.976 ± 0.013 (concentration: 6mM); 0.958 ± 0.028 (concentration: 8mM); 0.981 ± 0.026 (concentration: 10mM).
As to ARL3 (UniProt P36405), the NP40-soluble protein abundance runs as follows: (concentration: 1mM) 0.9899 ± 0.0033; (concentration: 2mM) 0.945 ± 0.031; (concentration: 4mM) 0.995 ± 0.048; (concentration: 6mM) 0.988 ± 0.052; (concentration: 8mM) 1.03 ± 0.041; (concentration: 10mM) 0.99 ± 0.042.
Turning to ABCD3 (UniProt P28288), the NP40-soluble protein abundance (concentration: 1mM) is 0.958 ± 0.036; the NP40-soluble protein abundance (concentration: 2mM) came to 0.842 ± 0.14; the NP40-soluble protein abundance (concentration: 4mM) stood at 0.935 ± 0.033; the NP40-soluble protein abundance (concentration: 6mM) was determined as 0.92 ± 0.029; the NP40-soluble protein abundance (concentration: 8mM) was 0.957 ± 0.071; the NP40-soluble protein abundance (concentration: 10mM) amounted to 0.894 ± 0.096.
With ABCD1 (UniProt P33897), the NP40-soluble protein abundance is, setting by setting: (concentration: 1mM) 0.999 ± 0.022; (concentration: 2mM) 0.967 ± 0.041; (concentration: 4mM) 1.014 ± 0.006; (concentration: 6mM) 0.9882 ± 0.0083; (concentration: 8mM) 1.01 ± 0.025; (concentration: 10mM) 0.991 ± 0.024.
Take FBL (UniProt P22087): the NP40-soluble protein abundance runs as follows: (concentration: 1mM) 1.02 ± 0.046; (concentration: 2mM) 1.027 ± 0.003; (concentration: 4mM) 1.1 ± 0.051; (concentration: 6mM) 1.22 ± 0.092; (concentration: 8mM) 1.37 ± 0.12; (concentration: 10mM) 1.48 ± 0.25.
Take UniProt P18206 and related entries: the NP40-soluble protein abundance is, setting by setting: (concentration: 1mM) 0.9694 ± 0.0051; (concentration: 2mM) 1.02 ± 0.058; (concentration: 4mM) 0.976 ± 0.033; (concentration: 6mM) 0.985 ± 0.022; (concentration: 8mM) 0.947 ± 0.039; (concentration: 10mM) 0.96 ± 0.044.
